Experimental data as given in PubChem BioAssay AID328 (DTP/NCI, 2004).
The list does not hold the whole screen: its compounds were picked by chemical class. Other doses and runs of a compound may be missing. T/C is the treated group as % of the vehicle group. For survival time, the PubChem record calls one and a half times the control and up active, and a quarter to a half above the control has no call in these data; cut-offs in other NCI protocols can differ. Some entries show no survivor count and are marked so; the dose need not have been tolerated. Schedules are NCI's codes, read here as Q, the interval in days (D) or hours (H), X, the number of doses. Marks such as (2×) stand for listed records that agree. Some doses were run more than once; the results are listed from low to high.

System: BDF1 mice, P388 leukemia ip, median survival T/C
Assay: NCI In Vivo Anticancer Drug Screen. Data for tumor model P388 Leukemia (intraperitoneal) in B6D2F1 (BDF1) mice
Details: T/C endpoint: median survival time, higher T/C = longer survival
Method in brief: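 Steps: implant the tumour, treat one group with compound and another with vehicle, record survival, then divide treated by control.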

[1] = dose: 100.0 mg/kg/injection, schedule: Q04DX003 (ip), vehicle: saline with Tween-80
[2] = dose: 200.0 mg/kg/injection, schedule: Q04DX003 (ip), vehicle: saline with Tween-80

Question: How did the T/C (dose: 0.25 mg/kg/injection, schedule: Q01DX010 (ip), vehicle: saline) turn out when `NC(Cc1ccccc1N(CCCl)CCCl)C(=O)O` (stereo not drawn) was run?
Answer: 200 [survivor count not shown] and 227 % of control [survivor count not shown]

Question: And the T/C (dose: 0.5 mg/kg/injection, schedule: Q01DX010 (ip), vehicle: saline)?
Answer: 204 [survivor count not shown] and 268 % of control [survivor count not shown]

Question: What about the T/C (dose: 1.0 mg/kg/injection, schedule: Q01DX010 (ip), vehicle: saline) of the same compound?
Answer: 300 % of control [survivor count not shown] (2×)

Question: What about the T/C (dose: 2.0 mg/kg/injection, schedule: Q01DX010 (ip), vehicle: saline) of the same compound?
Answer: 113 [survivor count not shown] and 133 % of control [survivor count not shown]

Question: For `N#CC(C#N)=Cc1ccc(N(CCCl)CCCl)cc1`, which T/C [1] is on record?
Answer: 118 % of control [survivor count not shown]

Question: And the T/C [2]?
Answer: 131 % of control [survivor count not shown]

Question: What about the T/C (dose: 264.0 mg/kg/injection, schedule: Q04DX003 (ip), vehicle: saline with Tween-80) of the same compound?
Answer: 120 % of control [survivor count not shown]

Question: What about the T/C (dose: 400.0 mg/kg/injection, schedule: Q04DX003 (ip), vehicle: saline with Tween-80) of the same compound?
Answer: 116 [survivor count not shown] and 222 % of control [survivor count not shown]

Question: And the T/C (dose: 600.0 mg/kg/injection, schedule: Q04DX003 (ip), vehicle: saline with Tween-80)?
Answer: 137 % of control [survivor count not shown]

Question: Which results are given for `O=c1[nH]cc(CN(CCCl)CCCl)c(=O)[nH]1`?
Answer: T/C (dose: 0.25 mg/kg/injection, schedule: Q01DX009 (ip), vehicle: saline): 190 % of control [survivor count not shown]; T/C (dose: 0.5 mg/kg/injection, schedule: Q01DX009 (ip), vehicle: saline): 218 % of control [survivor count not shown]

Question: With `CN(/N=C\c1ccc(N(CCCl)CCCl)cc1)C(=N)N` as the compound, how does the T/C (dose: 11.1 mg/kg/injection, schedule: Q01DX010 (ip), vehicle: carboxymethylcellulose (CMC)) read?
Answer: 155 % of control [survivor count not shown]

Question: And the T/C (dose: 11.1 mg/kg/injection, schedule: Q01DX010 (ip), vehicle: steroid suspending solution)?
Answer: 160 % of control [survivor count not shown]

Question: What about the T/C (dose: 16.6 mg/kg/injection, schedule: Q01DX010 (ip), vehicle: carboxymethylcellulose (CMC)) of the same compound?
Answer: 160 % of control [survivor count not shown]

Question: And the T/C (dose: 16.6 mg/kg/injection, schedule: Q01DX010 (ip), vehicle: steroid suspending solution)?
Answer: 175 % of control [survivor count not shown]

Question: And the T/C (dose: 25.0 mg/kg/injection, schedule: Q01DX010 (ip), vehicle: carboxymethylcellulose (CMC))?
Answer: 160 % of control [survivor count not shown]

Question: What about the T/C (dose: 25.0 mg/kg/injection, schedule: Q01DX010 (ip), vehicle: steroid suspending solution) of the same compound?
Answer: 170 % of control [survivor count not shown]

Question: What about the T/C (dose: 37.5 mg/kg/injection, schedule: Q01DX010 (ip), vehicle: carboxymethylcellulose (CMC)) of the same compound?
Answer: 160 % of control [survivor count not shown]

Question: What about the T/C (dose: 37.5 mg/kg/injection, schedule: Q01DX010 (ip), vehicle: steroid suspending solution) of the same compound?
Answer: 150 % of control [survivor count not shown]

Question: With `O=C(O)C(=O)Cc1ccc(N(CCCl)CCCl)cc1` as the compound, how does the T/C (dose: 33.0 mg/kg/injection, schedule: Q04DX003 (ip), vehicle: saline with Tween-80) read?
Answer: 168 [survivor count not shown] and 183 % of control [survivor count not shown]

Question: And the T/C (dose: 50.0 mg/kg/injection, schedule: Q04DX003 (ip), vehicle: saline with Tween-80)?
Answer: 183 [survivor count not shown] and 204 % of control [survivor count not shown]

Question: What about the T/C (dose: 75.0 mg/kg/injection, schedule: Q04DX003 (ip), vehicle: saline with Tween-80) of the same compound?
Answer: 177 [survivor count not shown] and 204 % of control [survivor count not shown]

Question: What about the T/C [1] of the same compound?
Answer: 200 % of control [survivor count not shown]

Question: And the T/C [2]?
Answer: 272 % of control [survivor count not shown]

Question: How did the T/C (dose: 0.31 mg/kg/injection, schedule: Q04DX003 (ip), vehicle: saline) turn out when `COc1cc(CN(CCCl)CCCl)cc(OC)c1OC` was run?
Answer: 104 % of control [survivor count not shown]

Question: And the T/C (dose: 0.62 mg/kg/injection, schedule: Q01DX009 (ip), vehicle: saline)?
Answer: 128 % of control [survivor count not shown]

Question: And the T/C (dose: 0.62 mg/kg/injection, schedule: Q04DX003 (ip), vehicle: saline)?
Answer: 90 % of control [survivor count not shown]

Question: And the T/C (dose: 1.25 mg/kg/injection, schedule: Q01DX009 (ip), vehicle: saline)?
Answer: 152 % of control [survivor count not shown]

Question: And the T/C (dose: 1.25 mg/kg/injection, schedule: Q04DX003 (ip), vehicle: saline)?
Answer: 118 % of control [survivor count not shown]

Question: And the T/C (dose: 2.5 mg/kg/injection, schedule: Q01DX009 (ip), vehicle: saline)?
Answer: 160 % of control [survivor count not shown]

Question: And the T/C (dose: 2.5 mg/kg/injection, schedule: Q04DX003 (ip), vehicle: saline)?
Answer: 127 % of control [survivor count not shown]

Question: What about the T/C (dose: 5.0 mg/kg/injection, schedule: Q01DX009 (ip), vehicle: saline) of the same compound?
Answer: 215 % of control [survivor count not shown]

Question: What about the T/C (dose: 5.0 mg/kg/injection, schedule: Q04DX003 (ip), vehicle: saline) of the same compound?
Answer: 187 % of control [survivor count not shown]

Question: What about the T/C (dose: 6.7 mg/kg/injection, schedule: Q04DX003 (ip), vehicle: saline) of the same compound?
Answer: 170 % of control [survivor count not shown]

Question: And the T/C (dose: 10.0 mg/kg/injection, schedule: Q04DX003 (ip), vehicle: saline)?
Answer: 175 [survivor count not shown], 183 [survivor count not shown], 200 % of control [survivor count not shown]

Question: Which results are given for `COC1OC(CN(CCCl)CCCl)C2OC(C)(C)OC12` (stereo not drawn)?
Answer: T/C (dose: 0.05 mg/kg/injection, schedule: Q01DX009 (ip), vehicle: saline): 100 % of control [survivor count not shown]; T/C (dose: 0.07 mg/kg/injection, schedule: Q01DX009 (ip), vehicle: saline): 105 % of control [survivor count not shown]; T/C (dose: 0.29 mg/kg/injection, schedule: Q01DX009 (ip), vehicle: saline): 154 % of control [survivor count not shown]; T/C (dose: 0.44 mg/kg/injection, schedule: Q01DX009 (ip), vehicle: saline): 150 % of control [survivor count not shown]; T/C (dose: 0.68 mg/kg/injection, schedule: Q01DX009 (ip), vehicle: saline): 241 % of control [survivor count not shown]; T/C (dose: 1.0 mg/kg/injection, schedule: Q01DX009 (ip), vehicle: saline): 241 % of control [survivor count not shown]; T/C (dose: 1.56 mg/kg/injection, schedule: Q01DX009 (ip), vehicle: saline): 204 % of control [survivor count not shown]; T/C (dose: 3.12 mg/kg/injection, schedule: Q01DX009 (ip), vehicle: saline): 227 % of control [survivor count not shown]

Question: Which results are given for `Cc1ccc(NC2(C(N)=O)CCNCC2)cc1`?
Answer: T/C (dose: 25.0 mg/kg/injection, schedule: Q04DX003 (ip), vehicle: saline): 96 % of control [survivor count not shown]; T/C (dose: 50.0 mg/kg/injection, schedule: Q04DX003 (ip), vehicle: saline): 92 % of control [survivor count not shown]; T/C (dose: 100.0 mg/kg/injection, schedule: Q04DX003 (ip), vehicle: saline): 104 % of control [survivor count not shown]

Question: `O=C(CCN(CCCl)CCCl)c1cccc([N+](=O)[O-])c1` was tested. Which T/C (dose: 3.0 mg/kg/injection, schedule: Q01DX009 (ip), vehicle: Klucel (hydroxypropylcellulose) (HPC)) did it give?
Answer: 153 % of control [survivor count not shown]

Question: And the T/C (dose: 6.0 mg/kg/injection, schedule: Q01DX009 (ip), vehicle: Klucel (hydroxypropylcellulose) (HPC))?
Answer: 163 % of control [survivor count not shown]

Question: And the T/C (dose: 12.0 mg/kg/injection, schedule: Q01DX009 (ip), vehicle: Klucel (hydroxypropylcellulose) (HPC))?
Answer: 203 % of control [survivor count not shown]

Question: What about the T/C (dose: 12.5 mg/kg/injection, schedule: Q01DX009 (ip), vehicle: carboxymethylcellulose (CMC)) of the same compound?
Answer: 268 % of control [survivor count not shown]

Question: And the T/C (dose: 25.0 mg/kg/injection, schedule: Q01DX009 (ip), vehicle: carboxymethylcellulose (CMC))?
Answer: 89 % of control [survivor count not shown]

Question: Which T/C (dose: 12.5 mg/kg/injection, schedule: Q01DX009 (ip), vehicle: saline) does the source give for `CC(Cl)CNCC(C)Cl` (stereo not drawn) here?
Answer: 105 % of control [survivor count not shown]

Question: What about the T/C (dose: 50.0 mg/kg/injection, schedule: Q01DX009 (ip), vehicle: saline) of the same compound?
Answer: 90 % of control [survivor count not shown]
